Experimental data as given in patent US4351949A, “Bicyclic prostaglandin analogs and method of synthesis” (Iowa State University Research Foundation, Inc., priority 1981, dated 1982).
Some entries share one result that the patent states for a list of compounds.

test system: arachidonic acid induced platelet aggregation; assay: in vitro arachidonic acid induced blood platelet aggregation; assay type: cell-based
Description: The compounds of Examples 1 through 11 were tested against arachidonic acid induced platelet aggregation.

Compound | inhibition of arachidonic acid induced platelet aggregation (in words)
CCCCCC(O)C#CC1C2CCC(C2)C1C/C=C/CCCC(=O)O (stereo not drawn) [Example 1] | potent inhibitors of blood platelet aggregation
CCCCCC(O)C#CC1C2CCC(C2)C1C/C=C/CCCCCCCC(=O)O (stereo not drawn) [Example 3] | potent inhibitors of blood platelet aggregation
CCCCCC(O)C#CC1C2CCC(C2)C1C/C=C/C(=O)O (stereo not drawn) [Example 5] | potent inhibitors of blood platelet aggregation
CCCCCC(O)C#CC1C2CCC(CC2)C1C/C=C/CCCC(=O)OC (stereo not drawn) [Example 8] | potent inhibitors of blood platelet aggregation
CCCCCC(O)C#CC1C2CCC(C2)C1C/C=C/CCCCCCCC(=O)OC (stereo not drawn) [Example 4] | potent inhibitors of blood platelet aggregation
CCCCCC(O)C#CC1C2C=CC(C2)C1C/C=C/CCCC(=O)OC (stereo not drawn) [Example 7] | potent inhibitors of blood platelet aggregation
CCCCCC(O)C#CC1C2CCC(C2)C1C/C=C/C(=O)OC (stereo not drawn) [Example 6] | potent inhibitors of blood platelet aggregation
CCCCCC(O)C#CC1C2CCC(C2)C1C/C=C/CCCC(=O)OC (stereo not drawn) [Example 2] | potent inhibitors of blood platelet aggregation
CCCCCC(O)C#CC1C2CCC(C2)C1C/C=C/CCCCO (stereo not drawn) [Example 9] | potent inhibitors of blood platelet aggregation
